Experimental data: the supplement of paper PMC12819154, “High-throughput peptide-centric local stability assay extends protein–ligand identification to membrane proteins, tissues and bacteria” (Nature Structural & Molecular Biology, 2025)
This is one part of the list. Most entries show no effect beyond the scatter of the controls.

Sequences of proteins named here, by UniProt entry; tags and fusion partners are left off. A change or cut given only in a name is not applied to a line headed by its entry.
UniProt Q9DCM0: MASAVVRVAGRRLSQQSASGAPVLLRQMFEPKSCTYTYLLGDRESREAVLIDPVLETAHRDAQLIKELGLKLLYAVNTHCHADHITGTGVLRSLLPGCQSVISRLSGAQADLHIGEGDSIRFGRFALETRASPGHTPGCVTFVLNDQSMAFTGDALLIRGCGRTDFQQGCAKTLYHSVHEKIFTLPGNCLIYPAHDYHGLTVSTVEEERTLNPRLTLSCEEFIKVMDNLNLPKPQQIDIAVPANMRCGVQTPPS
UniProt Q9DCT5: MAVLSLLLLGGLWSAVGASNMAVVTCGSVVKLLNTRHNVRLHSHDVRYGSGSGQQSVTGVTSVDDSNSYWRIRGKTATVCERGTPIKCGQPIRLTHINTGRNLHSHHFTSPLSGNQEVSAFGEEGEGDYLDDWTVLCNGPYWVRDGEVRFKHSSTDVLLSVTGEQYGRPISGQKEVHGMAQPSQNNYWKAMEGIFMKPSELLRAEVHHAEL
UniProt Q9ER74: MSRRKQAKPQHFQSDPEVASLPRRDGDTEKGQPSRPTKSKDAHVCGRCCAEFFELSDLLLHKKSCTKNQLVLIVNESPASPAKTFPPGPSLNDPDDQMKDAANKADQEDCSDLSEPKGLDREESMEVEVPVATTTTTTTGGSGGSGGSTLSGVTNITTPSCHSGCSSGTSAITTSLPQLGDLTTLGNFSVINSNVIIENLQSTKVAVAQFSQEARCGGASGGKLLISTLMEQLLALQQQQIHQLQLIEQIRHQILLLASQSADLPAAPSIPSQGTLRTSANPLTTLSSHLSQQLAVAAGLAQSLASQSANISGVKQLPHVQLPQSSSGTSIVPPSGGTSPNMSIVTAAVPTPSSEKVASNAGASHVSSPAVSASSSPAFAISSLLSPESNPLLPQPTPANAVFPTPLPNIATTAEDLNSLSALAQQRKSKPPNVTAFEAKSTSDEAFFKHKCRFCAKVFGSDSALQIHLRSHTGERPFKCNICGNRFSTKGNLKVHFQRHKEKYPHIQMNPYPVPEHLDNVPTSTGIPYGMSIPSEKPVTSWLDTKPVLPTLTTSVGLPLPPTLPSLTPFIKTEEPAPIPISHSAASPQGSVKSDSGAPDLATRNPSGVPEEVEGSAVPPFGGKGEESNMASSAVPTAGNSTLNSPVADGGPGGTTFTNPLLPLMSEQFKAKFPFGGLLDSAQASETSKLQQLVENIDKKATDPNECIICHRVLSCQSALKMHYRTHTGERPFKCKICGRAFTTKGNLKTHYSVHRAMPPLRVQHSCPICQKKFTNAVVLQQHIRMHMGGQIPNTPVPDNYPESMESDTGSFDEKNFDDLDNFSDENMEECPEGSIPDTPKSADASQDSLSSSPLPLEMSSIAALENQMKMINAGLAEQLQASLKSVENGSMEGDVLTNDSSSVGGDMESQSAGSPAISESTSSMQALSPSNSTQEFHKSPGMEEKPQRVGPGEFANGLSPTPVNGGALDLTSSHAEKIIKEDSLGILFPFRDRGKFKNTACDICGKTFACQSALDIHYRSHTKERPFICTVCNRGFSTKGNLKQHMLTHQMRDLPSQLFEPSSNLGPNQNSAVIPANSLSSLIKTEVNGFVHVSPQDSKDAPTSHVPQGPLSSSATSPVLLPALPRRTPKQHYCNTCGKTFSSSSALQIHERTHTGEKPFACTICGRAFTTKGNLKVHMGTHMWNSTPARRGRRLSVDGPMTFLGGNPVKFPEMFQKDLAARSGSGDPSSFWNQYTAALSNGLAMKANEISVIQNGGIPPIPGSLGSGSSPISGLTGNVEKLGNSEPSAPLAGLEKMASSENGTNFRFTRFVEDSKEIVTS
UniProt Q9DB28: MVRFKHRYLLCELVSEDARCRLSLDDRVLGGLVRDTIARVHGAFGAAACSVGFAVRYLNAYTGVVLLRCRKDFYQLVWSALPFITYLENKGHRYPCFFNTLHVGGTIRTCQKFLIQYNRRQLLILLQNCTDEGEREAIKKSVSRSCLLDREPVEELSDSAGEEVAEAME
UniProt Q9DBB4: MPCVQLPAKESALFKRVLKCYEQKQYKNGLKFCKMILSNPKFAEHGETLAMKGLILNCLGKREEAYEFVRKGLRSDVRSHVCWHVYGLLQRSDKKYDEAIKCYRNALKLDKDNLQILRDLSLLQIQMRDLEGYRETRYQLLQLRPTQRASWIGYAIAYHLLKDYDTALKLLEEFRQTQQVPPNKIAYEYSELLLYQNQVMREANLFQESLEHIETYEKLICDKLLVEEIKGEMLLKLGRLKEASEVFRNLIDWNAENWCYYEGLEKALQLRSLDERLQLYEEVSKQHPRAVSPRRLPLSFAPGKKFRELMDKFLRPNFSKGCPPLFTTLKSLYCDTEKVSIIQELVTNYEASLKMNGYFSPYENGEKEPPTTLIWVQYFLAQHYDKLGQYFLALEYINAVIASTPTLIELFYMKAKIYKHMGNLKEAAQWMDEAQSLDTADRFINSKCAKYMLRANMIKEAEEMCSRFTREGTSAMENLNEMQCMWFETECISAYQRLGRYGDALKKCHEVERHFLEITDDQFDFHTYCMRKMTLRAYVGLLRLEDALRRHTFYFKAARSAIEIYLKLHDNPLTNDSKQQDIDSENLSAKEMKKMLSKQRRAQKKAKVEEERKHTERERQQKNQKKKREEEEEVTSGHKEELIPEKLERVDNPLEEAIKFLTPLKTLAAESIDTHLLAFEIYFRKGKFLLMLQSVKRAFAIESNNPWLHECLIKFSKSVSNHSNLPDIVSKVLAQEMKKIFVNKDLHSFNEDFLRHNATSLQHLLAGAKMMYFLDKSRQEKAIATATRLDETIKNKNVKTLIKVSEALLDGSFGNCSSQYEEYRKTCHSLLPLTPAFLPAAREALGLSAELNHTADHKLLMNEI
UniProt Q9ER72: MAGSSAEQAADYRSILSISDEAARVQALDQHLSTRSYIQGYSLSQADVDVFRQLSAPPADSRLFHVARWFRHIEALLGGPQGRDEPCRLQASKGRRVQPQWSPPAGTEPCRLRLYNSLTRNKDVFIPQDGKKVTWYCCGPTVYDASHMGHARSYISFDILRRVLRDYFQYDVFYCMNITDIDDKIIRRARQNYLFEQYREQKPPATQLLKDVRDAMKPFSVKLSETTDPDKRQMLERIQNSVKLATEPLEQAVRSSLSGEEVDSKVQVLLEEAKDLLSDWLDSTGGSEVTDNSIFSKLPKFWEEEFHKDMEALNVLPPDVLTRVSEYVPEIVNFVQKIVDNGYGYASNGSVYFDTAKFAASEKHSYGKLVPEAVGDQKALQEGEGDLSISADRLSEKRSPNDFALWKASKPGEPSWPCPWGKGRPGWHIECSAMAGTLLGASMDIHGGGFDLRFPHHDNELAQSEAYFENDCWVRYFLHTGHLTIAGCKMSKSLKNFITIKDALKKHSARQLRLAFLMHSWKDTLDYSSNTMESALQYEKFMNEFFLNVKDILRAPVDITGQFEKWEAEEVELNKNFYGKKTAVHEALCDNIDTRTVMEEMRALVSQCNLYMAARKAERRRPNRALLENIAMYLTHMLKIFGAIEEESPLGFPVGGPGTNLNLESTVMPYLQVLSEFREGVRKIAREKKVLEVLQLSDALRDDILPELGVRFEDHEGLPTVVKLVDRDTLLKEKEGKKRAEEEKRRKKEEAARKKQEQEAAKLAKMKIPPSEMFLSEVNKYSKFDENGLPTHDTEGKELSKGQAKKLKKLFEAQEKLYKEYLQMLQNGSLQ
UniProt Q9ER35: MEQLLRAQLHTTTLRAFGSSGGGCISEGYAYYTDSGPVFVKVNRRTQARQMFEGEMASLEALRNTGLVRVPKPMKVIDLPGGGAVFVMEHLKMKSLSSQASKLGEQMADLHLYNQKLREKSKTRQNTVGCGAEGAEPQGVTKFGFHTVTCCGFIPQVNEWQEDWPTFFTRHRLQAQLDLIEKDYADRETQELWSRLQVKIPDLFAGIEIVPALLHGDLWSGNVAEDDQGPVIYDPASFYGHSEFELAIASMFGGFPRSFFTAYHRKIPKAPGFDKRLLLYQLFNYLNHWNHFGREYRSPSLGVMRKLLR
UniProt Q9DAT5: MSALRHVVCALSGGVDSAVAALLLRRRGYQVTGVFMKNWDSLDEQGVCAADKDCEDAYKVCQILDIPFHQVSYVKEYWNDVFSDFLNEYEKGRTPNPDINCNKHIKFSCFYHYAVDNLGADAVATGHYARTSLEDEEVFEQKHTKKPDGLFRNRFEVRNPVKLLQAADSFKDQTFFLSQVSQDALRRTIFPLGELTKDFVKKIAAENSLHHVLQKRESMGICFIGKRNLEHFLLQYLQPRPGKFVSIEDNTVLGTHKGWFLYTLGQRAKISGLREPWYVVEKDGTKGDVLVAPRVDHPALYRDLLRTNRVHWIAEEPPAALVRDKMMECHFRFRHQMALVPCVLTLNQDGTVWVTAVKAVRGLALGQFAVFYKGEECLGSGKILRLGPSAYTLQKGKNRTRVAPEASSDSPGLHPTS
UniProt Q9ER73: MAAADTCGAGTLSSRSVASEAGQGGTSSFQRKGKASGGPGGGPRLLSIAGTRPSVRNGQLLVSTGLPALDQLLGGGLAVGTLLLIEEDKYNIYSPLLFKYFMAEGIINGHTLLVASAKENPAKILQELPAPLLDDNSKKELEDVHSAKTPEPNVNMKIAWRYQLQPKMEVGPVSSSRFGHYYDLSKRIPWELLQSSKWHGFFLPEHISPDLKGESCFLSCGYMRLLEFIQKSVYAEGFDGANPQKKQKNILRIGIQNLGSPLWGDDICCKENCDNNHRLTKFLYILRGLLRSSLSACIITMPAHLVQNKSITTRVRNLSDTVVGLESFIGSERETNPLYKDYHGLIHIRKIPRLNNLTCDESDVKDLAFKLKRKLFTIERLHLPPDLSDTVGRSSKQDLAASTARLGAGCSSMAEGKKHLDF

Compound: CN[C@@H]1C[C@H]2O[C@@](C)([C@@H]1OC)n1c3ccccc3c3c4c(c5c6ccccc6n2c5c31)C(=O)NC4 [staurosporine]
Assay: log2 fold change of tryptic peptide abundance, ligand vs vehicle (limited proteolysis) (log2 ratio); higher = more trypsin-susceptible (destabilized)
Conditions: ligand concentration: 20 uM; sample: mouse liver crude lysate; replicate design: treated separately

Row | Target | log2 fold change
1 | UniProt Q9DCM0 (peptide sequence: LLYAVNTHCHADHITGTGVLR, peptide start residue: 72) | -0.273
2 | UniProt Q9DCT5 (peptide sequence: AEVHHAEL, peptide start residue: 204) | -0.176
3 | UniProt Q9ER74 (peptide sequence: VAVAQFSQEAR, peptide start residue: 205) | -0.179
4 | UniProt Q9DB28 (peptide sequence: QLLILLQNCTDEGEREAIKK, peptide start residue: 121) | -0.142
5 | UniProt Q9DBB4 (peptide sequence: HNATSLQHLLAGAK, peptide start residue: 756) | -0.44
6 | UniProt Q9ER72 (peptide sequence: ELSKGQAK, peptide start residue: 798) | -0.723
7 | UniProt Q9ER35 (peptide sequence: AQLHTTTLR, peptide start residue: 7) | 0.0666
8 | UniProt Q9DAT5 (peptide sequence: LGPSAYTLQK, peptide start residue: 386) | -0.359
9 | UniProt Q9ER73 (peptide sequence: ELEDVHSAK, peptide start residue: 140) | -0.367
